Data: patent US20160376632A1, “KINASE ACTIVITY DETECTION METHODS” (REGENTS OF THE UNIVERSITY OF MINNESOTA, priority 2014, published 2016)

Columns and labels:
[1] = TR-LRET calibration curve / HTS screening parameters of biosensor phosphorylation; conditions: in kinase reaction buffer
[2] = Time-resolved luminescence (TR-LRET) emission spectra of phosphorylated vs unphosphorylated biosensor with Tb3+; type: physicochemical; conditions: 15 μM peptide, 100 μM Tb3+, λex 266 nm
Method: FIGS. 2A-B illustrate Time-Resolved Lanthanide-based Resonance Energy Transfer (TR-LRET) detection of phosphorylation-dependent signals and fluorescence cross-interference. FIG. 2A illustrates time-resolved luminescence emission spectra for SAStide-Cy5 (dashed line) and pSAStide-Cy5 (solid line). FIG. 2B illustrates the 5-FAM-SFAStide-A (dashed line) and 5-FAM-pSFAStide-A (solid line). Spectra were collected from 15 μM peptide in the presence of 100 μM Tb3+ in 10 mM HEPES, 100 mM NaCl, pH 7.5, λex=266 nm, in 50 μL total volume, 1 ms collection time, 50 μs delay time, and sensitivity 180. Data represent the average of experiments performed in triplicate.
Time-resolved analysis of each peptide biosensor in the presence of Tb^3+ provided the four characteristic luminescence emission peaks from Tb^3+ as well as the fluorescence emission peak from the conjugated fluorophore label (FIGS. 2A, 2B). […] These changes in the intensity of the fluorophore signals upon phosphorylation of their respective peptides provide sensor-specific spectral features that can be monitored to determine phosphorylation of the sensors and consequently kinase activity.
Time-resolved emission spectra were collected on a Biotek Synergy4 plate reader at room temperature in black 384-well plates (Greiner Fluortrac 200). […]

| Substance | Z′-factor [1] | signal window (SW) [1] | increase in intensity at the 5-FAM emission maximum, phosphorylated vs unphosphorylated biosensor ([2]; λ520) | increase in intensity at the Cy5 emission maximum, phosphorylated vs unphosphorylated biosensor ([2]; λ670) |
| --- | --- | --- | --- | --- |
| 5-FAM-Ahx-GGEEDEDIYEELDEPGGKbGG [5-FAM-SFAStide-A, Src-family kinase peptide biosensor labelled with 5-carboxyfluorescein] | 0.78 | 12.65 |  |  |
| 5-FAM-Ahx-GGEEDEDIYEELDEPGGKbiotinGG [5-FAM-pSFAStide-A] |  |  | 3.9 fold |  |
| GGDEEDYEEPDEPGGCCy5GG [SAStide-Cy5] | 0.72 | 13.27 |  |  |
| GGDEEDYEEPDEPGGCCy5GG [pSAStide-Cy5] |  |  |  | 25 fold |
